For three molecules, binding results are on record in publication PMC9830510.

The chains behind the UniProt entries cited, without tags or fusion partners. Residues count along the entry.
UniProt O75636, residues 24-299: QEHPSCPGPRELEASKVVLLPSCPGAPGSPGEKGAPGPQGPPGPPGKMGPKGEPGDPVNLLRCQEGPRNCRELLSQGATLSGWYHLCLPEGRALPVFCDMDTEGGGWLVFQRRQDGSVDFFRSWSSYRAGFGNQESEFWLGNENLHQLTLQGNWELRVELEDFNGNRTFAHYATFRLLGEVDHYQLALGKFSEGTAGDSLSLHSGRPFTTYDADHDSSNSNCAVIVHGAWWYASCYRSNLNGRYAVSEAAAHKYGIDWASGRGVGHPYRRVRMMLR

The target of assay [1] is T1, DsRedMonomer-SBDS (full-length SBDS in pDsRedMonomer) (UniProt Q9Y3A5).
T1 sequence: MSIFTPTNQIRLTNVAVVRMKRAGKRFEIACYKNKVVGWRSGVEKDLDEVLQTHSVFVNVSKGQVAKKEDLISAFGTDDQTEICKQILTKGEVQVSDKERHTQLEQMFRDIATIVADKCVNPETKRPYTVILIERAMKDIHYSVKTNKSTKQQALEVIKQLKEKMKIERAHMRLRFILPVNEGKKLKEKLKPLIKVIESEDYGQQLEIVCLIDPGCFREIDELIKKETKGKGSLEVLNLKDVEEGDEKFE
Put plainly: FRET or BRET; living HCCLM3 cells co-transfected with AcGFP1-FCN3 and DsRedMonomer-SBDS; control pAcGFP1 and pDsRedMonomer; confocal microscopy, donor before and after (FRET-Efficiency= (Donor post-Donor pre)/Donor post).

Assay [2] deals with T2, SBDS (ribosome maturation factor), endogenous (human (endogenous in HCCLM3 and SK-Hep1)) (UniProt Q9Y3A5).
T2 sequence: T1 sequence
Put plainly: co-IP; endogenous co-IP; HCCLM3 and SK-Hep1 cells transfected with His-FCN3; IP with SBDS antibody or IgG; immunoblot.

The target of assay [3] is Full-length FCN3 (Ficolin-3) with a C-terminal 6x His tag (human) (UniProt O75636). Put plainly: co-IP; exogenous co-IP; HEK-293T co-transfected with His-FCN3 and cMyc-SBDS; IP buffer 20mM Tris-HCl pH 7.4, 1mM EDTA, 150mM NaCl, 1% NP-40; His-tag and Myc-tag antibodies, magnetic beads, overnight at 4 °C; immunoblot. A general note: A western blot detects proteins with antibodies after separation by electrophoresis.

These are yes or no findings as the source states them, for the method shown. Binding seen in cells or lysates may run through a third protein. Some binding calls cover weakened binding; strength is not graded here. For part of these data: Where a sequence is shown, tags or fusion partners need not be part of it.

Take “AcGFP1-FCN3 (full-length FCN3 in pAcGFP1) (from UniProt O75636 24-299)”: the binding result in assay [1] is listed as “binds”.
Regarding “Full-length FCN3 (Ficolin-3) with a C-terminal 6x His tag (from UniProt O75636 24-299)”, in assay [2], the binding result was “binds”.

B1: SBDS (ribosome maturation factor) with a C-terminal Myc tag (protein, UniProt Q9Y3A5 1-250)
chain: T1 sequence
Regarding B1, the binding result in assay [3] is “binds”.
